Measurements reported in PMC9897673.
No constants are given. Whether binding was seen depends on the method and setting. Binding seen in cells or lysates may run through a third protein. Some results given as binding are weak or reduced against the parent protein; the word gives no strength. For some of these results: Where a sequence is shown, tags or fusion partners need not be part of it.

Chains of the proteins cited; added tags and fusions are not shown.
UniProt P17931: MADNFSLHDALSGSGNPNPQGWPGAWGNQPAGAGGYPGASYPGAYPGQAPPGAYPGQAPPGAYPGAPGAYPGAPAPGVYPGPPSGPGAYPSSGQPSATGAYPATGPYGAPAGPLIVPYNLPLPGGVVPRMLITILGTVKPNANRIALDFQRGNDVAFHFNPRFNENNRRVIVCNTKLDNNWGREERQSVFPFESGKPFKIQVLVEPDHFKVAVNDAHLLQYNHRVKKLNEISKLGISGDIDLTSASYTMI

What was measured:
[1] = biological target: T1, GFP-PODXL WT (podocalyxin isoform A, extracellularly GFP-tagged) (human) (UniProt O00592); test: co-IP; association of GAL3 WT or R186S with PODXL (fig. S7, I and J); which partner was precipitated was not shown
T1 sequence: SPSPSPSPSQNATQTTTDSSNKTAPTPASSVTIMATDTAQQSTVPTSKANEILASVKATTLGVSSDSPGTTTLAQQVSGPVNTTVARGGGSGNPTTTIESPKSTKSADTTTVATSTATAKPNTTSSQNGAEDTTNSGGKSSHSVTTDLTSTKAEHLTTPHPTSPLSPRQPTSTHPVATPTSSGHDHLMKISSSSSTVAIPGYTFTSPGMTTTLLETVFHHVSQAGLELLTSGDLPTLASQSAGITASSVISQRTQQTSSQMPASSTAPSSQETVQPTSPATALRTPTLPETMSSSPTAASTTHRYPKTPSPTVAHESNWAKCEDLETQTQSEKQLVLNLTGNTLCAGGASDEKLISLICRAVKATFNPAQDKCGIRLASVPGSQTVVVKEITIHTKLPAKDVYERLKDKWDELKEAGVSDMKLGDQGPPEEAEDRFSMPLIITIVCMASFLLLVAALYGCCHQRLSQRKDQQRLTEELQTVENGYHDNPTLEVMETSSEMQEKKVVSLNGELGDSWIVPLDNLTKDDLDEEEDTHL

[2] = biological target: T2, podocalyxin (PODXL), endogenous (human (endogenous in PC3)) (UniProt O00592); test: co-IP; 1 mg PC3 lysate (Scramble or ITGB1 shRNA) immunoprecipitated with anti-PODXL antibody (3D3) O.N. at 4°C, anti-mouse IgG agarose; Western blot for GAL3; 10 mM tris-Cl (pH 7.5), 150 mM NaCl, 0.5% NP-40
T2 sequence: T1 sequence

[3] = biological target: T1, GFP-PODXL WT (podocalyxin isoform A, extracellularly GFP-tagged) (human); test: co-IP; GFP-Trap immunoprecipitation of GFP-PODXL WT or mutants from PC3 lysates, Western blot for GAL3; lysis buffer 10 mM tris-Cl (pH 7.5), 150 mM NaCl, 0.5% NP-40
[4] = biological target: T3, GFP-PODXLb (podocalyxin isoform B WT) (human) (UniProt O00592); test: as above
T3 sequence: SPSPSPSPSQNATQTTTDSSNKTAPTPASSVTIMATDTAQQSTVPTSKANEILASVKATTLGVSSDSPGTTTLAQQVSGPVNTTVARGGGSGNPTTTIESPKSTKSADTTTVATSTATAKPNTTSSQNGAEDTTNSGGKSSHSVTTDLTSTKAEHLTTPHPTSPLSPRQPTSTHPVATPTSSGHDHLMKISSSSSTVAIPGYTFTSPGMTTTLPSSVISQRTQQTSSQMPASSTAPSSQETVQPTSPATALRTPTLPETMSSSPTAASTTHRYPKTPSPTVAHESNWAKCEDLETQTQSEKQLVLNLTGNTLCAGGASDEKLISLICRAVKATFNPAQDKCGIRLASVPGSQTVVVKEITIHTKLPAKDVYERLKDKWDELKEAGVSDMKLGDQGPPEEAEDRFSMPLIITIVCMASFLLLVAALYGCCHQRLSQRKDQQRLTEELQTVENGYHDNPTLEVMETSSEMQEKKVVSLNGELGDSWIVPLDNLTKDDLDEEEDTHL

binding [1] | binding [2] | binding [3] | binding [4] | Substance
binds |  |  |  | TagRFP-T-GAL3 WT (RNAi-resistant) (from UniProt P17931 1-250)
 | binds | binds | binds | galectin-3 (GAL3), endogenous (from UniProt P17931 1-250)
